From paper PMC9201722
Results are given in words; binding and its absence hold for the method and conditions named. Binding seen in cells or lysates may run through a third protein. A result given as binding can be weak or reduced; the word gives no strength.

Protein sequences, listed by entry. Tags and fused reporters are not part of them. Lines headed by an entry give the natural chain unless they say otherwise; changes in a name come on top.
UniProt O97182: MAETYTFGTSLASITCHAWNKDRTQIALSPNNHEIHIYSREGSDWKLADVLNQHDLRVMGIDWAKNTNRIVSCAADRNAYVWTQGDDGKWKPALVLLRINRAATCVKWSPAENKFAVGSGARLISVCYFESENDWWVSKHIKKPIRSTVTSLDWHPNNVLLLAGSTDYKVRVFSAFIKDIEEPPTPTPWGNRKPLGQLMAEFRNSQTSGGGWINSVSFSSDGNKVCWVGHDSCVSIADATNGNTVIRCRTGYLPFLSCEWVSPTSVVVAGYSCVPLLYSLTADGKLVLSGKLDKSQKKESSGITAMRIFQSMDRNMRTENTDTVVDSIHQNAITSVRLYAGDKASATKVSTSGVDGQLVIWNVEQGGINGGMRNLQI
UniProt Q9VRJ6: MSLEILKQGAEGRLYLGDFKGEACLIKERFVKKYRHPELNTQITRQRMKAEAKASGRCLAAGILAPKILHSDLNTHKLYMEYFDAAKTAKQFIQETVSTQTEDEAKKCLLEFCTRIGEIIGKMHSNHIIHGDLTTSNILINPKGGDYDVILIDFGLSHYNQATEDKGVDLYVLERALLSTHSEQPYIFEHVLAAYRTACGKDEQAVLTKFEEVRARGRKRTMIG

Target: Arp2/3 complex subunit Arpc1, GFP-tagged (Arpc1-GFP) (Drosophila melanogaster) (UniProt O97182)
Assay: co-IP; Constructs expressed with the Cg-Gal4 driver; extract of 60 pairs of third instar larval fat bodies (40 mM HEPES pH 7.5, 120 mM NaCl, 0.3% CHAPS buffer); 250 ug extract on GFP-Trap_A beads, 2 h at 4°C; blots with anti-HA and anti-GFP

Substance | binding
Drosophila p53-related protein kinase, FLAG-tagged (Prpk-Flag) (from UniProt Q9VRJ6) | binds
Drosophila p53-related protein kinase, HA-tagged (Prpk-HA) (from UniProt Q9VRJ6) | binds
